From paper PMC10241913
These are yes or no findings as the source states them, for the method shown.

Protein sequences, listed by entry. Tags and fused reporters are not part of them. Residues count along the entry.
UniProt P63165, residues 1-97: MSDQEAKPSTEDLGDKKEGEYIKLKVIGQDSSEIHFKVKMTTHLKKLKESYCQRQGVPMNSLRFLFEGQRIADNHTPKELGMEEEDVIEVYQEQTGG
UniProt Q9BZV1: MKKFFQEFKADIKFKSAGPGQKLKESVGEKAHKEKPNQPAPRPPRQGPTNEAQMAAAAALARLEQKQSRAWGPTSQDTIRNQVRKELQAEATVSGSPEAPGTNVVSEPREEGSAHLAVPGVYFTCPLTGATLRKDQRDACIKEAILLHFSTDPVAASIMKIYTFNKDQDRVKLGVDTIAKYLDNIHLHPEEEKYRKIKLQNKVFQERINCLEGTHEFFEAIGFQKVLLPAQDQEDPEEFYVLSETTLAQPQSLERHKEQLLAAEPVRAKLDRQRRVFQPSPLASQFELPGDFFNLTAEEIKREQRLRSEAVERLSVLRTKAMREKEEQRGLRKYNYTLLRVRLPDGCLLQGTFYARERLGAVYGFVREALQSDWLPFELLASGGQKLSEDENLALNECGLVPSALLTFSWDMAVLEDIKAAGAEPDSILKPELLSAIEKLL

Target: Atto594-SUMO1 (UniProt P63165)
Test: fluorescence polarisation; fluorescence anisotropy; labeled ubiquitin, ubiquitin chains or SUMO1 as probe, UBXD1 titrated; PBS pH 7.5, 25 °C; one-site fit; both purified

Substance: UBXD1 (1–441), recombinant, purified (from UniProt Q9BZV1 1-441)
- binding: no binding
